Laboratory results: patent publication US20230123585A1, “COMPOSITIONS AND METHODS FOR TREATING OR PREVENTING CANCER USING DEUBIQUITINASE INHIBITORS” (The University of Chicago, priority 2020, published 2023)
At least one compound was matched to its structure with a doubt left.

Assays:
[1] = test system: METTL3 / m^6A methyltransferase complex in A375 cells; experiment: Immunoblot of METTL3 / m^6A methyltransferase complex protein in A375 cell lysates; format: cell-based, human; conditions: A375 melanoma cells, 8 h, 10 μM PD0325901 or 0.1 μM trametinib
Procedure: (§1) FIGS. 6A-6H: Phosphorylation of the m^6A Methyltransferase Complex May Affect Tumorigenesis. (A) Lysates of A375 stable transfectants harvested at different time points after treatment with cycloheximide (CHX) 10 μg/ml were analyzed by immunoblot. (B) LC-MS/MS quantification of the m^6A/A ratio in mRNA of A375 stable transfectants. (C) After 8 h treatment with 10 μM PD0325901 or 0.1 μM tramentib, cell lysates from A375 cells were analyzed by immunoblot. (D) LC-MS/MS quantification of the m^6A/A ratio in mRNA of A375 cells treated with 10 μM PD0325901 or 0.1 μM tramentib for 48 h. (E) After 8hr treatment with 10 μM EOAI3402143 (EOAI) or 30 μM vialinin A , cell lysates from A375 cells were analyzed by immunoblot. (F) A375 stable transfectants as indicated were treated with 3 μM EOAI3402143 (EOAI) or 10 μM vialinin A before measuring cell viability by SRB assay. […] (H) LC-MS/MS quantification of the m^6A/A ratio in mRNA of SKBR3 and BT474 cells treated with 1 μM tucatinib and 1 μM lapatinib for 48 h. […]
FIGS. 11A-11G: USP5 is Required for ERK-Mediated METTL3 Stabilization. […] The ubiquitination of METTL3 was detected by IP with anti-METTL3 and immunoblot with anti-HA. (B) After 8 h treatment with 10 μM PD0325901 with or without 10 μM MG-132, cell lysates from A375 cells were analyzed by immunoblot. […]

p-METTL3 (S43) = p-METTL3 (S43) in A375 cells, IP with METTL3 antibody followed by immunoblot; format: cell-based, human; conditions: 1 h, 1 μM dabrafenib, 1 μM PLX-4720, 10 μM PD0325901, 0.1 μM trametinib
Text: FIGS. 10A-10G: ERK Interacts and Phosphorylates METTL3 and WTAP. (A-C) Mass spectrometry detected S43, S50 and S525 phosphorylation in METTL3 in 293T cells co-transfected with B-RAF V600E. (D) Characterization of anti-p-METTL3 (S43) antibodies of 293T cells transfected as indicated with MEK S218D/S222D, HER2 V659E, B-RAF V600E and WT or non-phosphorylatable alanine mutant (3A) METTL3. (E) The METTL3 S43 phosphorylation was identified by in vitro kinase assays, in which purified METTL3-METTL14 were incubated with activated ERK2. (F) A375 cells were treated with 1 μM dabrafenib, 1 μM PLX-4720, 10 μM PD0325901, 0.1 μM tramentib for 1 h. Cell lysates were subjected to IP with METTL3 antibody followed by immunoblot. (G) Phos-tag SDS-PAGE showing the phosphorylation status of WT or non-phosphorylatable alanine mutants of mice WTAP in 293T cells co-transfected with B-RAF. 2A, T298A/S341A.
To investigate METTL3 phosphorylation by ERK inside cells, a polyclonal antibody was generated that targets S43-phosphorylated METTL3. […]
(§2) Immunoprecipitation, immunoblotting, and in vitro kinase assay. […] Primary antibodies were detected by HRP-linked secondary antibodies (Cell Signaling) together with SuperSignal West Pico Plus chemiluminescent substrate (Thermo Scientific) and imaged in a FluorChem R system (ProteinSimple).

[2] = test system: m^6A methyltransferase complex in HCT-116 cells; experiment: Immunoblot of m^6A methyltransferase complex in HCT-116 cell lysates; format: cell-based; conditions: 8 h, 10 μM PD0325901 or 0.1 μM trametinib
Procedure: FIGS. 14A-14I: Phosphorylation of the m^6A Methyltransferase Complex May Affect Tumorigenesis. (A) Oncogenes (promote cancer), tumor suppressors (inhibit carcinogenesis), and drivers (important in cancer development, either oncogene or tumor suppressor) were used as classifiers by Cancermine database to identify the potential role of METTL3 from the published literature. (B) LC-MS/MS quantification of the m^6A/A ratio in mRNA of melanoma cell lines. (C) After 8 h treatment with 10 μM PD0325901 or 0.1 μM tramentib, cell lysates from HCT-116 cells were analyzed by immunoblot. (D) Kaplan-Meier analysis of overall survival time based on METTL3 expression from the skin cutaneous melanoma (SKCM) dataset at The Cancer Genome Atlas (TCGA). […] The ubiquitination of METTL3 was detected by IP with anti-METTL3 and immunoblot with anti-HA. (F) After 8 hr treatment with 10 μM EOAI3402143 (EOAI) or 30 μM vialinin A, cell lysates from HCT-116 cells were analyzed by immunoblot. […] (I) LC-MS/MS quantification of the m^6A/A ratio in mRNA of breast cancer cell lines.
as §2

mRNA m^6A in A375 cells = experiment: LC-MS/MS quantification of the m^6A/A ratio in mRNA of A375 cells; format: cell-based, human; conditions: A375 melanoma cells, 48 h, 10 μM PD0325901 or 0.1 μM trametinib
Procedure: as §1, with “immunoblot.” for “immunoblot. (F) A375 stable transfectants as indicated were treated with 3 μM EOAI3402143 (EOAI) or 10 μM vialinin A before measuring cell viability by SRB assay.”
LC-MS/MS quantification of m^6A in poly(A) RNA. mRNA was extracted from the total RNA using 2 rounds of the Dynabeads mRNA purification kit. […] The nucleosides were quantified by using the nucleoside-to-base ion mass transitions of 282 to 150 (m^6A) and 268 to 136 (A). Quantification was carried out by comparison with a standard curve obtained from pure nucleoside. The ratio of m^6A to A was calculated based on the calibrated concentrations (Liu et al., 2018).

CC(=O)Nc1cccc(-n2c(=O)n(C3CC3)c(=O)c3c(Nc4ccc(I)cc4F)n(C)c(=O)c(C)c32)c1 [trametinib]
protein levels of the m^6A methyltransferase complex [1]: reduce | p-METTL3 (S43) (p-METTL3 (S43)): abrogated | m^6A methyltransferase complex level [2]: decreased | overall mRNA m^6A levels (m^6A/A ratio) (mRNA m^6A in A375 cells): reduce
